No constants are given. Whether binding was seen depends on the method and setting. Some entries that bind do so weakly or less than the wild type.
Tests used:
[1] = molecular target: T1, HLA-E protein as expressed in human tumor tissue (bound peptide not specified) (human) (UniProt P13747+P61769); test: elution from HLA-E captured on a 4D12 column, LC/MS/MS
[2] = molecular target: T1, HLA-E protein as expressed in human tumor tissue (bound peptide not specified) (human); test: elution from affinity-purified HLA-E, LC/MS/MS against synthetic peptide

Sequences of proteins named here, by UniProt entry; tags and fusion partners are left off. A change or cut given only in a name is not applied to a line headed by its entry.
UniProt P13747: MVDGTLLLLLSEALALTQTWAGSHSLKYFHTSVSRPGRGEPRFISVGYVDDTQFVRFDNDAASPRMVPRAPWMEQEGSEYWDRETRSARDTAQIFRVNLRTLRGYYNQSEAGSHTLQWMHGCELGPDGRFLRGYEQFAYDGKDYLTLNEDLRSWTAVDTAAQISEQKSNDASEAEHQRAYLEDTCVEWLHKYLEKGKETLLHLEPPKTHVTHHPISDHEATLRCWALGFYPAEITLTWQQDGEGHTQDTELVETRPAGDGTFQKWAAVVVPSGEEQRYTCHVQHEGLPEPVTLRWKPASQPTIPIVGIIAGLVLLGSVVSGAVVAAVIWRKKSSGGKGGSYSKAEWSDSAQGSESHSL
UniProt P61769: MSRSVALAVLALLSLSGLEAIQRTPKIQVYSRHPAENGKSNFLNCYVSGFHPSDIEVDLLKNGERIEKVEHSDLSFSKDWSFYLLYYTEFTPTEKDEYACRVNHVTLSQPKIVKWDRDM

Binder | binding [1] | binding [2]
GLADKVYFL [peptide … (CAD protein 445-453)] | binds | binds
MLALLTQVA [peptide … (HEXB protein 26-34)] | binds | –

Source: patent US20200291128A1 (ABEXXA BIOLOGICS, published 2020)
